Molecules are shown by their SMILES. Structures can show the parent of a compound that is named as a salt. ± gives the standard deviation of the averaged measurements. This is one part of the list. The data scatter; read single values as rough.

The subject of the assay is Salmonella enterica serovar Typhimurium ST313 D23580. As to the kind of experiment: normalized bacterial growth (OD600 20 h minus 0 h, interquartile-mean normalized) (fraction of plate interquartile mean); higher = more bacterial growth (less inhibition). The settings on record: LPM (pH 5.8, low phosphate, low Mg2+), concentration: 10 µM, temperature: 37 °C.
Turning to `CC(=O)Oc1ccc2c(c1OC(C)=O)OCC1(O)Cc3c(cc(OC(C)=O)c(OC(C)=O)c3OC(C)=O)C21` (stereo not drawn), the normalized bacterial growth came to 0.806.

Turning to `O=C1c2c(O)cccc2Cc2cccc(O)c21`, the normalized bacterial growth was 0.818. Regarding `C#CC(N)CCC(=O)O` (stereo not drawn) [gamma-Acetylinic GABA], the normalized bacterial growth amounted to 1.16.

Regarding `O=S(=O)(O)c1cc(N=C=S)ccc1/C=C/c1ccc(N=C=S)cc1S(=O)(=O)O`, the normalized bacterial growth was determined as 0.828. The result for `COc1cc([C@@H]2CC(=O)c3c(O)cc(O)cc3O2)ccc1O` reads 1.08; that for `COc1ccc2c(c1)CCC1C2CCC2(C)C(NCCCCCCN3C(=O)C=CC3=O)CCC12` (stereo not drawn), 0.86. Under `O=C1C[C@@H](c2ccccc2)Oc2cc(O)cc(O)c21` stands 0.968.

Regarding `COC(=O)C1=C(C)NC(C)=C([N+](=O)[O-])C1c1ccccc1C(F)(F)F` (stereo not drawn), the normalized bacterial growth came to 1. The result for `COc1cc(C(=O)OCCCN2CCCN(CCCOC(=O)c3cc(OC)c(OC)c(OC)c3)CC2)cc(OC)c1OC` [Dilazep hydrochloride] reads 0.913; that for `COc1cc(C(=O)OCCCN2CCCN(CCCOC(=O)c3cc(OC)c(OC)c(OC)c3)CC2)cc(OC)c1OC` [Dilazep dihydrochloride], 0.986; that for `N=C(NC(=O)c1nc(Cl)c(N)nc1N)Nc1ccccc1` [Phenamil methanesulfonate], 0.717. Under `CC[N+](C)(CC)CCOC(=O)C(O)(c1ccccc1)C1CCCCC1` (stereo not drawn) stands 0.919. Under `CN(C)CCCN1c2ccccc2Sc2ccc(C(F)(F)F)cc21` [Triflupromazine hydrochloride] stands 0.768; under `C[N+]1(C)CCC(OC(=O)C(c2ccccc2)c2ccccc2)CC1` [4-DAMP methiodide], 0.969; under `COc1cc(C(=O)O[C@H]2C[C@@H]3CC[C@]2(C)C3(C)C)ccc1O`, 0.475. With `Oc1cc(O)c2c(c1)O[C@H](c1ccc(O)c(O)c1)[C@@H](O)C2` [(+)-Catechin Hydrate], the normalized bacterial growth came out at 1.23. Under `Cc1[nH]ccc2c1[nH]c1cc(=O)ccc12` [Harmol hydrochloride monohydrate] stands 1.09. Under `Cc1[nH]ccc2c1[nH]c1cc(=O)ccc12` stands 0.889. Under `CCN(CC)CCOC(=O)C1(C2CCCCC2)CCCCC1` [Dicyclomine hydrochloride] stands 0.838.

Compound `O=c1cc(-c2ccccc2)oc2c(O)c(O)ccc12` displayed a normalized bacterial growth of 0.836. Under `CC(N/C(=N\C#N)Nc1ccncc1)C(C)(C)C` (stereo not drawn) [Pinacidil] stands 1.06 ± 0.13; under `NS(=O)(=O)c1cc(C2(O)NC(=O)c3ccccc32)ccc1Cl` (stereo not drawn), 0.977. Under `CCCCCCCCCCCCCCCC(=O)OC/C=C(C)/C=C/C=C(C)/C=C/C1=C(C)CCCC1(C)C` stands 0.87; under `C=CC(N)CCC(=O)O` (stereo not drawn) [()-gamma-Vinyl GABA], 1.11; under `CC(C)c1c(C(=O)Nc2ccccc2)c(-c2ccccc2)c(-c2ccc(F)cc2)n1CC[C@@H](O)C[C@@H](O)CC(=O)O`, 1.15.

Turning to `CC(=O)OCC(=O)[C@@]1(O)CC[C@H]2[C@@H]3CCC4=CC(=O)CC[C@]4(C)[C@H]3[C@@H](O)C[C@@]21C`, the normalized bacterial growth stood at 1.28. The result for `CCN[C@H]1CN(CCCOC)S(=O)(=O)c2sc(S(N)(=O)=O)cc21` [Brinzolamide] reads 1.18; that for `CC(=O)OCC(=O)[C@@]1(O)CC[C@H]2[C@@H]3CCC4=CC(=O)C=C[C@]4(C)[C@@]3(Cl)[C@@H](Cl)C[C@@]21C`, 0.996. `O=C(O)CN1C(=O)c2cccc3cccc(c23)C1=O` showed a normalized bacterial growth of 0.923. Under `CC(=O)O[C@@H]1C[C@H]2C(C)(C)[C@@H](O)CC[C@]2(C)[C@H]2CC[C@@]3(C)[C@H](c4ccoc4)OC(=O)[C@H]4O[C@]43[C@@]21C` [beta-DIHYDROGEDUNOL] stands 0.757; under `CCCCN(CCCC)CCCOC(=O)c1ccc(N)cc1`, 1.14; under `Cc1ccc(C(=O)c2ccc(CC(=O)O)n2C)cc1`, 1.12.

`Cc1ccc(C(=O)c2ccc(CC(=O)O)n2C)cc1` [Tolmetin sodium salt dihydrate] showed a normalized bacterial growth of 1.11. The result for `COC(=O)Nc1nc2cc(C(=O)c3cccs3)ccc2[nH]1` [Nocodazole] reads 0.91; that for `CC(=O)OCC(=O)[C@@]1(O)CC[C@H]2[C@@H]3CCC4=CC(=O)CC[C@]4(C)[C@@]3(F)[C@@H](O)C[C@@]21C` [Fludrocortisone acetate], 0.971. `CC(=O)OCC(=O)[C@@]1(O)CC[C@H]2[C@@H]3CCC4=CC(=O)CC[C@]4(C)[C@@]3(F)[C@@H](O)C[C@@]21C` returned a normalized bacterial growth of 1.01. The result for `O=C(O)CCCCCCCC(=O)O` [Azelaic acid] reads 1.23; that for `CC(=O)O[C@@H]1C[C@H]2C(C)(C)C(=O)CC[C@]2(C)[C@H]2CC[C@@]3(C)[C@H](c4ccoc4)OC(=O)[C@H]4O[C@]43[C@@]21C`, 1.03; that for `CC12CCC3C(CC3(C)C)C(C)(CCC1=O)O2` (stereo not drawn), 0.749. Under `CC(=Cc1ccc(C(=O)O)cc1)c1ccc2c(c1)C(C)(C)CCC2(C)C` stands 1.04; under `COc1ccc2c3c([nH]c2c1)[C@H]1C[C@H]2[C@H](C[C@@H](O)[C@H](OC)[C@H]2C(=O)O)CN1CC3` [Reserpinic acid hydrochloride], 1.32; under `OCCN1CCN(CC/C=C2/c3ccccc3Sc3ccc(C(F)(F)F)cc32)CC1` [cis-(Z)-Flupenthixol dihydrochloride], 0.922. Under `COc1c(-c2coc3cc4c(cc3c2=O)CC(O)C(C)(C)O4)ccc2c1C=CC(C)(C)O2` (stereo not drawn) stands 0.687; under `Cc1cn[nH]c1` [4-Methylpyrazole hydrochloride], 0.925; under `NCCc1c[nH]cn1` [Histamine dihydrochloride], 0.921.

For the compound `Nc1[nH]cnc2ncnc1-2`, the normalized bacterial growth stood at 0.993. The result for `CC(=O)[C@@]1(O)CC[C@H]2[C@@H]3C=C(Cl)C4=CC(=O)[C@@H]5C[C@@H]5[C@]4(C)[C@H]3CC[C@@]21C` reads 0.538; that for `CC[N+](C)(C)c1cccc(O)c1` [Edrophonium chloride], 1.31; that for `COc1ccc2c(=O)c(OC)c(-c3ccccc3)oc2c1`, 1.07. In the case of `CN1CCC(=C2c3ccccc3C=Cc3ccccc32)CC1` [Cyproheptadine hydrochloride], the normalized bacterial growth came to 0.67. Under `NCC(O)C1CCCCCCC1` (stereo not drawn) [2-Cyclooctyl-2-hydroxyethylamine hydrochloride] stands 0.997. Consider `N#Cc1c(-c2ccccc2)no[n+]1[O-]` [4-Phenyl-3-furoxancarbonitrile], for which the normalized bacterial growth was found to be 0.991. The result for `CC(C)(C)NC[C@@H](O)COc1cccc2c1CCCC2=O` [(+) -Levobunolol hydrochloride] reads 0.567.

The record behind these values is the supplement of paper PMC10398353.
